# Experimental data: PubChem BioAssay AID1471 (National Center for Advancing Translational Sciences (NCATS), 2008)
# Several values for one entry are separate records, joined by “and”; a condition that tells them apart may be missing. Equal entries are not always repeated. The campaign covered roughly 230,000 compounds. About 310 (0.13%) were called active. The shares of active, inactive and inconclusive entries below differ from those in the screen. The call rests on the fitted dose curve; in most records, active means well fitted activation curve with a large enough effect; inconclusive means small, poorly fitted or top-dose-only effect; inactive means no such curve, though single readings can be large or run the other way. A potency beside an inconclusive call is a rough fit, not a confirmed value.
# Experiment: qHTS Multiplex Assay to Identify Dual Action Probes in a Cell Model of Huntington: Cytoprotection (ATP); further: nearly all actives have a fitted effect of over 45% in size;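 on cytoprotection (ATP increase): toxic huntingtin expression switched on by the ecdysone agonist tebufenozide; % of control where 0% means no effect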
# Conditions: PC12 HTT-Q103 induced, ATP luminescence, 40 h; cytoprotection (ATP increase): at 56.4 µM (top of the series) unless noted
# Outline: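 Compounds added alongside 100 nM tebufenozide, which induces toxic Q103 huntingtin exon 1-GFP in stable PC12 cells; surviving cells quantified by luminescent ATP measurement. Medium: phenol red-free DMEM, 5% equine and 5% calf serum.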
# Potency means the concentration at half of the fitted maximal effect.
SMILES,Potency,cytoprotection (ATP increase)
Nc1cccc2c1C(=O)N(C(=O)c1cccc(S(=O)(=O)N3CCCC3)c1)C2=O,"inconclusive: 1.26 µM [activator, single point]",
CC(=O)[C@H](CC(C)C)NC(=O)[C@@H](CC(C)C)NC(=O)[C@H](CC(C)C)NC(=O)OCc1ccccc1,,inactive: -124% [at 1.9 µM]
CC(C)(CO)NC(=O)Nc1ccc(Cl)c(Cl)c1,"inconclusive: 0.501 µM [activator, full curve, poor fit]",
IC(I)I,inactive,
Cc1ccc(-n2nc(-c3ccco3)cc2C(=O)O)c(C)c1,"inconclusive: 3.16 µM [activator, single point]",
Cc1nc(NCCO)c2nnn(Cc3ccccc3F)c2n1,,inactive: -7.03% [at 10 µM]
C=CCOC(=O)N[C@H](C[N+](=O)[O-])c1ccccc1,"inconclusive: 6.31 µM [activator, single point]",
C=CCSSSCC=C,inactive,
CN/C(=C\[N+](=O)[O-])NCCSCc1ccc(CN(C)C)o1,"inconclusive: 0.708 µM [activator, single point]",
Oc1ccc2cc(SSc3ccc4cc(O)ccc4c3)ccc2c1,"inconclusive: 39.8 µM [activator, single point]",
CC(C)OP(=O)(c1ccc(N(C)C)cc1)C(O)c1cccnc1 (configuration not stated),"inconclusive: 1.12 µM [activator, single point]",
CC(=O)NC[C@@H]1CN(c2ccc(N3CCOCC3)c(F)c2)C(=O)O1,"inconclusive: 35.5 µM [activator, single point]",
C=CCNc1nc(-c2ccc(O)c(C(N)=O)c2)cs1,"inconclusive: 15.8 µM [activator, single point]",
Cc1cc(Nc2ccccc2)n(-c2cccc(Cl)c2)n1,inactive,
Cc1cc(C(C)(C)C)c(O)c(C(C)(C)C)c1,"inconclusive: 35.5 µM [activator, single point]",
C1COC(NC(C2CC2)C2CC2)=N1,"inconclusive: 501 nM [activator, partial curve] and inconclusive: 708 nM [activator, full curve, poor fit]",
COCCn1c(=O)c(-c2ccc(Cl)cc2)nc2cncnc21,"inconclusive: 5.62 µM [activator, single point]",
Cc1nc2cncnc2n(C2CC2)c1=O,"inconclusive: 0.0063 µM [activator, full curve, poor fit]",
Cc1ccc(-c2csc(NC(=O)C3CCN(S(=O)(=O)c4cccs4)CC3)n2)cc1,,inactive: 6.89% [at 10 µM]
COc1cc(C(=O)Nc2ccc(S(=O)(=O)Nc3cc(C)nc(C)n3)cc2)cc(OC)c1OC,"inconclusive: 4.47 µM [activator, single point]",
COc1ccc(C(=O)N/C(=C\c2cccc([N+](=O)[O-])c2)C(=O)Nc2cccc(C(=O)O)c2)cc1,"inconclusive: 5.62 µM [activator, single point]",
O=C(COc1ccc(Cl)cc1Cl)NCCCCc1ccccc1,"inconclusive: 0.282 µM [activator, partial curve, poor fit]",
Cc1cc(C)nc(NS(=O)(=O)c2ccc(NC(=O)COc3ccccc3)cc2)n1,inactive,
Cc1c(N)cccc1Cl,"inconclusive: 5.62 µM [activator, single point]",

# Single values from the results shown.
# Value of `C=CCNc1nc(-c2ccc(O)c(C(N)=O)c2)cs1` under Potency: inconclusive: 15.8 µM [activator, single point]
# Value of `Cc1cc(Nc2ccccc2)n(-c2cccc(Cl)c2)n1` under Potency: inactive
# Value of `COCCn1c(=O)c(-c2ccc(Cl)cc2)nc2cncnc21` under Potency: inconclusive: 5.62 µM [activator, single point]
# Value of `CC(C)(CO)NC(=O)Nc1ccc(Cl)c(Cl)c1` under Potency: inconclusive: 0.501 µM [activator, full curve, poor fit]
# Value of `CC(=O)NC[C@@H]1CN(c2ccc(N3CCOCC3)c(F)c2)C(=O)O1` under Potency: inconclusive: 35.5 µM [activator, single point]

# (further entries)

SMILES,Potency,cytoprotection (ATP increase)
CC(NC(=O)CCc1nnc(Cc2cccc(C(F)(F)F)c2)o1)C1CC1 (configuration not stated),"inconclusive: 1.26 µM [activator, single point]",
C/C(=N/NC(=O)c1cnccn1)c1cccs1,"inconclusive: 0.708 µM [activator, single point]",
COc1ccccc1NC(=O)c1cc(Cl)nnc1Cl,"inconclusive: 15.8 µM [activator, single point]",
COc1ccccc1Sc1nc(-c2ccccn2)ncc1OC,"inconclusive: 5.62 µM [activator, single point]",
Cc1cnc(C(=O)Nc2cccc3cccnc23)cn1,inactive,
O=C1Nc2ccccc2/C1=N\N=C\C1=C(N2CCOCC2)C(=C\c2ccccc2)/CC1,inactive,
C=CCOC(=O)N[C@H](/C(C(=O)OC)=C(\C)NCc1ccccc1)c1cccc(C(F)(F)F)c1,"inconclusive: 2.82 µM [activator, single point]",
Cc1ccc(NC(=S)N(CCCN2CCC(C)CC2)Cc2ccco2)cc1C,"inconclusive: 4.47 µM [activator, partial curve]",
O=C(O)c1ccc(Cn2c(SCc3cc(=O)n4cc(Br)ccc4n3)nc3ccsc3c2=O)cc1,,inactive: 15.3% [at 10 µM]
N#Cc1ccc(CN2CC3(CCN(C(=O)c4cccc(F)c4)CC3)C2)cc1,inactive,
COc1cccc(OCCNc2cc(Cl)ccc2[N+](=O)[O-])c1,,inactive: 4.28% [at 10 µM]
CCC(C)N=C1Sc2nc3ccc(C)cc3cc2CN1CCOC (configuration not stated),"inconclusive: 2.51 µM [activator, single point]",
CN(C)c1nc(OCCNC(=O)Nc2ccccc2)nc(N2CCOCC2)n1,inactive,
Cc1ccc(S(=O)(=O)N2CCOCC2)cc1NC(=O)c1cccc(S(=O)(=O)N2CCCC2)c1,"inconclusive: 5.62 µM [activator, partial curve, poor fit]",
Cc1ccc(O)c(NC(=O)C2CC(c3c(F)cccc3Cl)=NO2)c1 (configuration not stated),"inconclusive: 15.8 µM [activator, single point]",
COc1ccc(NC2=C(C(C)=O)C(c3ccc4c(c3)OCO4)C(C(C)=O)C(C)(O)C2)cc1 (configuration not stated),inactive,
CC(=O)NC(=O)c1ccccc1O,"inconclusive: 6.31 µM [activator, partial curve]",
COc1ccc(N2C(=O)CC3(CCCC3)CC2=O)cc1,active: 3.16 µM,
COc1ccccc1CNc1nc(-c2ccc3c(c2)OCO3)nc2ccccc12,inactive,
CCOc1ccc(NC(=O)CSc2nc(-c3cccs3)cc(C(F)(F)F)n2)c([N+](=O)[O-])c1,"inconclusive: 1.26 µM [activator, single point]",
Cc1ccc(C(=O)c2sc3nsc(C)c3c2N)cc1,inactive,
Cc1ccc(N2CN=c3s/c(=C\c4cccnc4)c(=O)n3C2)cc1,inactive,
Cc1ccc(S(=O)(=O)N[C@@H](Cc2ccccc2)C(=O)CCl)cc1,"inconclusive: 31.6 µM [activator, single point]",
COc1cc(C(=O)NCc2ccc(OCCN(C)C)cc2)cc(OC)c1OC,"inconclusive: 0.398 µM [activator, partial curve]",

SMILES,Potency,cytoprotection (ATP increase)
CC(C)(C)N1C(=O)[C@H]2[C@H]3[C@H](O)[C@H](O)C/C(=N/OC[C@@H](O)COCc4ccco4)[C@@H]3CC[C@@H]2C1=O,"inconclusive: 1.12 µM [activator, full curve, poor fit]",
O=C(O)CCC(=O)OC[C@@H](NC(=O)C(Cl)Cl)C(O)c1ccc([N+](=O)[O-])cc1 (some centres not stated),"inconclusive: 1.26 µM [activator, single point]",
C[N+]1(Cc2ccccc2)CCC(C(=O)OCC2CCCC2)CC1 (configuration not stated),inactive,
Cc1ccc(Oc2ncnc(N)c2[N+](=O)[O-])cc1,"inconclusive: 7.94 µM [activator, partial curve, poor fit]",
COc1cc(/C=C2/NC(=O)N(Cc3ccccc3F)C2=O)ccc1O,inactive,
CC(=O)Nc1cccc(NC(=O)c2cc3ccccc3o2)c1,,inactive: -87.8% [at 10 µM]
CN(C)S(=O)(=O)c1ccc(Cl)c(C(=O)NCc2ccco2)c1,,inactive: -6.38% [at 10 µM]
COCCn1c(C)cc(C2=NNC(=Nc3ccccc3)SC2)c1C,inactive,
CC(SCC(=O)NC(C)C1CC2CCC1C2)C(=O)O (configuration not stated),active: 0.891 µM,
CCC(C)Nc1nc(Cl)nc(N(C#N)CN2C(=O)c3ccccc3S2(=O)=O)n1 (configuration not stated),inactive,
O=C(Cc1ccccc1)Nc1ccc(Br)c(Cl)c1,,inactive: -4.63% [at 10 µM]
COc1ccc(NC(=O)/C(=C\c2ccc3c(c2)OCO3)NC(C)=O)cc1,"inconclusive: 3.16 µM [activator, partial curve]",
Cc1c(/C(O)=C2/C(=O)C(=O)N(CCN3CCOCC3)C2c2ccccn2)cnn1-c1ccccc1 (configuration not stated),inactive,
CCc1ccc(CNC(=O)C2CCC(=O)N2C2CCCCC2)cc1 (configuration not stated),"inconclusive: 35.5 µM [activator, single point]",
CC(C)(C)OC(=O)NCCCC1=CC2=CC(=O)C(C)(OC(=O)CCc3ccccc3)C(=O)C2=CO1 (configuration not stated),"inconclusive: 5.62 µM [activator, single point]",
CCOn1c(=O)c(-c2cccc3ccccc23)[n+]([O-])c2ccccc21,inactive,
COc1cc2ncnc(Nc3cccc(Cl)c3)c2cc1OC,"inconclusive: 0.708 µM [activator, single point]",
O=[N+]([O-])c1cccc(C(=S)N2CCN(c3ccccc3)CC2)c1,"inconclusive: 0.0891 µM [activator, full curve, poor fit]",
O=c1oc2cc(O)ccc2s1,"inconclusive: 6.31 µM [activator, full curve, poor fit]",
C/C(CCN1CCCCc2nc(C)c(C)cc21)=N\OC[C@@H](O)[C@@H]1O[C@@H]2OC(C)(C)O[C@@H]2[C@H]1O,"inconclusive: 5.62 µM [activator, single point]",
Cc1oc(C(=O)O)cc1COc1cccc2cccnc12,inactive,
CCCn1c(SCC(=O)N2c3ccccc3CCc3ccccc32)nc2c1c(=O)n(C)c(=O)n2C,inactive,
COc1ccc(Nc2c3c(nc4ccccc24)CCCC3)cc1OC,inactive,
Cn1c(Cc2cccs2)nnc1SC/C=C/c1ccccc1,,inactive: 0.405% [at 10 µM]
